Earlier results, collected in patent US10058563B2, “System and method for diagnosis and treatment” (Pop Test Oncology Limited Liability Company, priority 2011, dated 2018).
At least one compound was matched to its structure with a doubt left.

Tested on: oesophageal SCC and HCC cells
Conditions: cited from earlier work

For `C[C@@H]1C[C@H]2[C@@H]3CCC4=CC(=O)C=C[C@]4(C)[C@@]3(F)[C@@H](O)C[C@]2(C)[C@@]1(O)C(=O)CO` [Dexamethasone], the effect on chemoresistance is listed as “confer chemoresistance”.
